The results in this text go back to paper doi:10.1101/2025.01.30.635772.

By UniProt entry, the sequences of proteins in these tests, tags left out.
UniProt Q16637: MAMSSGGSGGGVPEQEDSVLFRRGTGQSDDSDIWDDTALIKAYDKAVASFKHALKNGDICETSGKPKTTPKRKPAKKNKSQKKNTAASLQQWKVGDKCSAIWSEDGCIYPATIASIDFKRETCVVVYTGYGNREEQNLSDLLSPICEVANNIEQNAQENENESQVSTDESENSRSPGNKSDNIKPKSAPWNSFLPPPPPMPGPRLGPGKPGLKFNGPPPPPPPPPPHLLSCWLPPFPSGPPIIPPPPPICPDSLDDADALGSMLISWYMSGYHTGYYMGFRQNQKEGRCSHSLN

For the test, the target named is mCherry-SMN^WT expressed in HeLa cells (human) (UniProt Q16637). Put plainly: FRET or BRET. (In general: BRET reads energy transfer from a luciferase to a nearby fluorophore.)

These are yes or no findings as the source states them, for the method shown. Binding seen in cells or lysates may run through a third protein. Some entries that bind do so weakly or less than the wild type. Where a sequence is shown, tags or fusion partners need not be part of it.

B1: GAR1-EGFP expressed in HeLa cells (protein, UniProt Q9NY12 1-217)
chain: MSFRGGGRGGFNRGGGGGGFNRGGSSNHFRGGGGGGGGGNFRGGGRGGFGRGGGRGGFNKGQDQGPPERVVLLGEFLHPCEDDIVCKCTTDENKVPYFNAPVYLENKEQIGKVDEIFGQLRDFYFSVKLSENMKASSFKKLQKFYIDPYKLLPLQRFLPRPPGEKGPPRGGGRGGRGGGRGGGGRGGGRGGGFRGGRGGGGGGFRGGRGGGFRGRGH
As for B1, the binding result is “binds”.
